This is an account of results in article PMC7862700.

Some of the results follow. The source does not settle which construct or isoform was used.

The assay concerns the target T1, ELF2 (UniProt Q15723).
T1 sequence: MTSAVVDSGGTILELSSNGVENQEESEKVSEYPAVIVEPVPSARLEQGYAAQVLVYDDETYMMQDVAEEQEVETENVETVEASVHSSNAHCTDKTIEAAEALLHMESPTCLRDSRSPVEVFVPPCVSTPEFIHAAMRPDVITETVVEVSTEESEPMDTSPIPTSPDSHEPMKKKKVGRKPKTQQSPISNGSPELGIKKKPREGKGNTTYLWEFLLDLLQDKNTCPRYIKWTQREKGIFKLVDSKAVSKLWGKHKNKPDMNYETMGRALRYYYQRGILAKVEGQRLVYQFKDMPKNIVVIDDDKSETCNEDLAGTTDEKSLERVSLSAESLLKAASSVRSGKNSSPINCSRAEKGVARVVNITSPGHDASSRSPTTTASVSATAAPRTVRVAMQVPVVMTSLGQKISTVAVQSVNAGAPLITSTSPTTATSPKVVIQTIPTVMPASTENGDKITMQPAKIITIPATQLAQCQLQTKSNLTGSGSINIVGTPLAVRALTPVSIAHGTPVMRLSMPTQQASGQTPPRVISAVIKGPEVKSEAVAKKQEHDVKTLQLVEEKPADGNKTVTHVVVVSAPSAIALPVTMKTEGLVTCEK
Description: DAPPL (digital affinity profiling via proximity ligation, sequencing). Particulars: 10 mM Tris-HCl pH 7.5, 50 mM NaCl, 1 mM DTT, 4% glycerol, room temperature, 30 min; GST-TFs on glutathione beads, 16-mer random dsDNA library, 0.1% …; high values mean tight binding; double strand, one strand shown; scale: fold enrichment (6-mer frequency, TF over GST control).
On to AGCACT, for which the binding signal came to 1.4. GAAAGT registered a binding signal of 0.834. Regarding GTTCCC, the binding signal is 1.32. Consider TATCCC, for which the binding signal was found to be 1.63. ATCTGG returned a binding signal of 1.14. In turn, ACCTTA displayed a binding signal of 1.19. TGCTGG: the binding signal came to 1.09. Take TGGGTT: the binding signal worked out at 1. GTTTTA: the binding signal is 1.1. Regarding GTATCT, the binding signal was found to be 1.12. To TAAGTA belongs 1.19; to GCCTGG, 0.934; to CGTTTC, 1.99. As for CCTTCG, the binding signal came to 1.29. Regarding CTGCTC, the binding signal stood at 1.17. CTTAGT had a binding signal of 1.15. In the case of TTCGCG, the binding signal is 1.1. In turn, TCCGCT came in with a binding signal of 2.71.

TCGTCT: the binding signal is 1.28. AACAAC: the binding signal is 1.32.

In turn, GCAAAT gave a binding signal of 1.07. With GCTTCC the figure was 5.33; with CGAAGT, 0.904; with CCTGCG, 1.27.

On to CTTGTA, for which the binding signal came out at 1.32. To ATTTTA belongs 1.26; to AGAATG, 0.919. Sequence TCCACC showed a binding signal of 1.15. With CTCACA the figure was 1.2; with AGCTAG, 0.987; with CCAACT, 1.19. As to CTTCTC, the binding signal turned out to be 1.3. In turn, CGAAGA displayed a binding signal of 0.76. Turning to CGCGCT, the binding signal stood at 1.17. Consider TTAAAT, for which the binding signal came to 1.11.

Sequence TCGAGC displayed a binding signal of 0.932. TTGTTC had a binding signal of 1.59. As for TATGCA, the binding signal is 1.21.

In the case of TTATCC, the binding signal was determined as 1.53. ATCTAT registered a binding signal of 1.1.
